The chains behind the UniProt entries cited, without tags or fusion partners. Residues count along the entry.
UniProt P35249: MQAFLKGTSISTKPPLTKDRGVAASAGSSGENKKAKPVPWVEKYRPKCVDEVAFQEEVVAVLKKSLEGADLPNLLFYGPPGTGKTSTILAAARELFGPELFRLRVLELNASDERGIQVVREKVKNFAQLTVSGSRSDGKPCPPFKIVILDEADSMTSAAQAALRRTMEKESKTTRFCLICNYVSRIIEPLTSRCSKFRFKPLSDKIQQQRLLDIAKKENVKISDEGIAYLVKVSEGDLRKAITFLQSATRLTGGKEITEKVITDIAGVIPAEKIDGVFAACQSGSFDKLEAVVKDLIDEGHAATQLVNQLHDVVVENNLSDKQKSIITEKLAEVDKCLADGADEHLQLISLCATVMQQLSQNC
UniProt P46531, residues 1754-2555: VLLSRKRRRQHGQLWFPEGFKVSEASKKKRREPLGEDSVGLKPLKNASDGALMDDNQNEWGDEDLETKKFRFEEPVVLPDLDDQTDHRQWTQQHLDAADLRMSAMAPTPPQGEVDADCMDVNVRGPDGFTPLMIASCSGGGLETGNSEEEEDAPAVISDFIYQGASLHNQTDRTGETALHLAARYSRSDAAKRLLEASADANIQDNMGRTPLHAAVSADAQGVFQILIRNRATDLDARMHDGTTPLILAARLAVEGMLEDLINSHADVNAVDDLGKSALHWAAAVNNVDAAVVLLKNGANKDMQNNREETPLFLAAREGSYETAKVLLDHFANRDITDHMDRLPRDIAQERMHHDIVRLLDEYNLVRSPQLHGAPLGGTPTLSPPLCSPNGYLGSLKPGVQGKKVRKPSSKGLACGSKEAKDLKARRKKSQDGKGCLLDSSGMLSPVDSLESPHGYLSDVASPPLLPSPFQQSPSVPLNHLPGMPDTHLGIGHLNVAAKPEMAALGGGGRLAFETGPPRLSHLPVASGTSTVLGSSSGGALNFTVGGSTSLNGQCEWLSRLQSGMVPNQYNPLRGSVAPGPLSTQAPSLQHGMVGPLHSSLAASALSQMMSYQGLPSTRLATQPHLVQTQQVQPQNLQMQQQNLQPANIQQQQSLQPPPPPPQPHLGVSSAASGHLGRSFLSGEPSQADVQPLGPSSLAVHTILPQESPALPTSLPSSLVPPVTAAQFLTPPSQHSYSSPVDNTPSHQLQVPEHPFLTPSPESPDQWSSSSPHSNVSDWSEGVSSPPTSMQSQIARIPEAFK

In paper PMC8113560:

Biological target: FLAG-tagged RFC4 (UniProt P35249)
Assay: affinity purification with mass spectrometry; anti-FLAG affinity purification from lysates of A549 cells transfected with FLAG-tagged RFC4; indicated gel bands subjected to MS

- binding: binds
Substance: endogenous Notch1 intracellular domain (NICD1) (from UniProt P46531 1754-2555) (domain or fragment)

No constants are given. Whether binding was seen depends on the method and setting. Binding seen in cells or lysates may run through a third protein. Here binding means that the protein was enriched with, or labelled near, the bait; the list need not be complete.
